No constants are given. Whether binding was seen depends on the method and setting. In cells and extracts the contact can be indirect. Some results given as binding are weak or reduced against the parent protein; the word gives no strength. For some assays here: Where a sequence is shown, tags or fusion partners need not be part of it.
B1: Mul1-FLAG (wild-type mouse mitochondrial E3 ubiquitin protein ligase), expressed in HEK293 cells (enzyme, UniProt Q8VCM5 1-352)
chain: MESGSRPSLGQVILLGTSSMVTAVLYSIYRQKAQVAQELKGAKKIHLGEDLKGILSEAPGKCVPYAVIEGAVRSVKETLNSQFVENCKGVIQRLSLQEHKMVWNRTTHLWNDYSKIIHQRTNTVPFDLVPHEDGVAVSVRVLKPLDSVDLGLETVYEKFHPSVQSFTDAIGHYISGERPKGIQETEEMLKVGATLTGIGELVLDNNAVRLQPPKQGMQYYLSSQDFDSLLHRQESSVRLWKILVLVFGFATCATLFFILRKQYLHRQERLRQQQLQEEFLEHEAQLLSQASPEDRESLKSACVVCLSNFKSCVFLECGHVCSCRQCYLALPEPKRCPICRREITRVIPLYNS
B2: endogenous Mul1 of J774A.1 cells (enzyme, UniProt Q8VCM5 1-352)
chain: B1 chain

How the values were obtained:
[1] = target: T1, Asc-Myc (wild-type mouse apoptosis-associated speck-like protein containing a Card), expressed in HEK293 cells (mouse) (UniProt Q9EPB4); test: co-IP
T1 sequence: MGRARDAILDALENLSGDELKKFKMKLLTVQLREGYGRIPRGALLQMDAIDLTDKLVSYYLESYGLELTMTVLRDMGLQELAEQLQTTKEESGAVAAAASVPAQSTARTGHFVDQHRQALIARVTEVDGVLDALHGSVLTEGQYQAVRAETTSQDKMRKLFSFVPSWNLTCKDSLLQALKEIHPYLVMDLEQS

[2] = target: T2, endogenous Asc of J774A.1 cells (mouse (endogenous in J774A.1)) (UniProt Q9EPB4); test: co-IP
T2 sequence: T1 sequence

Binder | binding [1] | binding [2]
B1 | binds | –
B2 | – | binds
